Experimental data as given in patent publication US20130210903.
Construct, isoform or probe ends are uncertain for at least one entry. Protein sequences can lack the tags named with them.

Biological target: T1, Glycoprotein VI (GPVI), soluble purified extracellular domain (Homo sapiens) (UniProt Q9HCN6)
T1 sequence (looked up, limits assumed): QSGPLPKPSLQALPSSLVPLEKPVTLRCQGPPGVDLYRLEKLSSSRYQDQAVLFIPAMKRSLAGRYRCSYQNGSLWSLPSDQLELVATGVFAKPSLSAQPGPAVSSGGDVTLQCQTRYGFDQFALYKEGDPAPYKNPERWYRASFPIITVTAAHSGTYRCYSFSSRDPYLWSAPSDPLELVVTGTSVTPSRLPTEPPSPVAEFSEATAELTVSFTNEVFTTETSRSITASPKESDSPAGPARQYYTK
Assay: FP filter
Details: 2'-F modified RNA; purified recombinant protein

| Sequence | binding result |
| --- | --- |
| GGGAGGACGAUGCGGCAUCAGACUGCAUCCAGCAUAAGCCACCACCAGAGACCGUCAGACGACUCGCUGAGGAUCCGAGA [GPVI aptamer SEQ ID NO:11] | binds |
| GGGAGGACGAUGCGGACGGCCAAACGCCUAGCAUAAGCCCAUCAGUCACUCCCACCAGACGACUCGCUGAGGAUCCGAGA [GPVI aptamer SEQ ID NO:33] | binds |
| GGGAGGACGAUGCGGCGAGUGUAAGCAUCACUGCAUCUAGCGUAAGCCACCCAAACAGACGACUCGCUGAGGAUCCGAGA [GPVI aptamer SEQ ID NO:7] | binds |
| GGGGAGGACGAUGCGGACAGUGUCACACACUUUGCGUAAGCCGCUAGCCCCCUCCGCAGACGACUCGCUGAGGAUCCGAGA [GPVI aptamer SEQ ID NO:4] | binds |
| GGGAGGACGAUGCGGGCACCCAAAACAGGGGCUCACGUCUGGCAUAAGCCUGCCCACAGACGACUCGCUGAGGAUCCGAGA [GPVI aptamer SEQ ID NO:13] | binds |
| GGGAGGACGAUGCGGGUGACGUGGACGGCGACAGCCCAGCAUAAGCCACGUGUGACAGACGACUCGCUGAGGAUCCGAGA [GPVI aptamer SEQ ID NO:45] | binds |
| GGGAGGAACGAUGCGGGUGACGUGGACGGCGACAGCCCAGCAUAAGCCACGUGUGACAGACGACUCGCUGAGGAUCCGAGA [GPVI aptamer SEQ ID NO:12] | binds |
| GGGAGGACGAUGCGGGUGACGUGGACGGCGACAGCCCAGCAUAAGCCACGUGUGACAGACGACUCGCUGAGGAUCCGAGA [GPVI aptamer SEQ ID NO:34] | binds |
